One substance from article PMC6782003 can be followed below.

Sequences of proteins named here, by UniProt entry; tags and fusion partners are left off.
UniProt Q91XJ1: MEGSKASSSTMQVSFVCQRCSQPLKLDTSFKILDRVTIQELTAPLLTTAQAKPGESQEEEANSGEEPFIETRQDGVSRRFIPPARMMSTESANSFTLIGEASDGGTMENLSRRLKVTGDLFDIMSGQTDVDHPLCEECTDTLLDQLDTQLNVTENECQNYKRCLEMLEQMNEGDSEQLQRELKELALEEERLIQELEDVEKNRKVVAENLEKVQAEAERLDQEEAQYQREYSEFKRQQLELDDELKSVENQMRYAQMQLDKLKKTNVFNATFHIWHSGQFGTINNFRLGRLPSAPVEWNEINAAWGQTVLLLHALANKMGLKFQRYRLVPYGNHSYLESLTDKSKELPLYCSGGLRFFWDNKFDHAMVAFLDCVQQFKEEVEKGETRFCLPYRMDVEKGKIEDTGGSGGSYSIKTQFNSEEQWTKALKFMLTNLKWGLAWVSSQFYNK

Results are given in words; binding and its absence hold for the method and conditions named. Binding seen in cells or lysates may run through a third protein. Some results given as binding are weak or reduced against the parent protein; the word gives no strength. For some assays here: Sequences can lack the tags named with a protein.

One assay concerns the target T1, 14-3-3t (UniProt P68255).
T1 sequence: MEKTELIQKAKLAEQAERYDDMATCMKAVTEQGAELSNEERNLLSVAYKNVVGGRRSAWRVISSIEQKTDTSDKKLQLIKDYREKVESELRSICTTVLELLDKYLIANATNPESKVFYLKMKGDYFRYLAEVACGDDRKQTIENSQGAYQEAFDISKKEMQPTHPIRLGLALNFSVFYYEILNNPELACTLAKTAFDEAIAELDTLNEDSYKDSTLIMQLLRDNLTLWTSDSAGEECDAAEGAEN
As to the kind of experiment: proximity ligation; indirect in situ PLA (Duolink, Detection Reagents Red) on fixed, permeabilised neurons following Glu treatment; two primary antibodies (mouse and rabbit); confocal microscopy.

For the next assay, the target named is T2, Flag-14-3-3t (UniProt P68255).
T2 sequence: T1 sequence
As to the kind of experiment: co-IP; lysate of neuronal cells overexpressing Flag-14-3-3t (adenovirus); anti-Flag antibody, protein A/G magnetic beads, overnight 4 °C; buffer A (20 mM Tris-HCl pH 7.4, 150 mM NaCl, 1% Triton X-100, 0.5% sodium deoxycholate); immunoblot. In general terms: In western blotting, separated proteins are transferred to a membrane and probed.

In the case of Beclin-1 (from UniProt Q91XJ1 1-448), the binding result with 14-3-3t and with Flag-14-3-3t was “binds” in each case.
